Reference: the supplement of paper PMC10849652
This is one part of the list.

Amino acid sequences for entries named in this document (tags omitted). A change or cut given only in a name is not applied to a line headed by its entry.
UniProt Q9UBF2: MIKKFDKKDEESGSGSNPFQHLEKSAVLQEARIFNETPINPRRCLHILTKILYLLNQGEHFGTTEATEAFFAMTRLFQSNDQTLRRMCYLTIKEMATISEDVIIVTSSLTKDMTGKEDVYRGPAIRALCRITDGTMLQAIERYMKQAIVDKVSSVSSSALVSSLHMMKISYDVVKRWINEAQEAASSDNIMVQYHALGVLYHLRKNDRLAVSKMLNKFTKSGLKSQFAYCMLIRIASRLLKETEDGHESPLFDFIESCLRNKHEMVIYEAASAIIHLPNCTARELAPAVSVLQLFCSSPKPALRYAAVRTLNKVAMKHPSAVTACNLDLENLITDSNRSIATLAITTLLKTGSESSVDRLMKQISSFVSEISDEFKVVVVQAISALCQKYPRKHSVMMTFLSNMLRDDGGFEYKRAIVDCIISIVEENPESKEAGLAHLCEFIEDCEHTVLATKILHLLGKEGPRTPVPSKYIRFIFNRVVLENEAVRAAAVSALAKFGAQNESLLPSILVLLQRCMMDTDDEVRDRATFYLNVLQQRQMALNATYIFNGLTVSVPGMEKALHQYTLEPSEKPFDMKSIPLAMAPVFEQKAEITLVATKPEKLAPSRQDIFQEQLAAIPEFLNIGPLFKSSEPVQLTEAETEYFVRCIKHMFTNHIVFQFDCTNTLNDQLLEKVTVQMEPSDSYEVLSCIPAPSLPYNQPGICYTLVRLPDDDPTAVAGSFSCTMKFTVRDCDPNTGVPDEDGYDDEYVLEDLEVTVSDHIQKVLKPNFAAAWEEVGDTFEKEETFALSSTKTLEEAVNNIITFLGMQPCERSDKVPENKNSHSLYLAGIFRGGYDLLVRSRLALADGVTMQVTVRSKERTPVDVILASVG
UniProt O95825: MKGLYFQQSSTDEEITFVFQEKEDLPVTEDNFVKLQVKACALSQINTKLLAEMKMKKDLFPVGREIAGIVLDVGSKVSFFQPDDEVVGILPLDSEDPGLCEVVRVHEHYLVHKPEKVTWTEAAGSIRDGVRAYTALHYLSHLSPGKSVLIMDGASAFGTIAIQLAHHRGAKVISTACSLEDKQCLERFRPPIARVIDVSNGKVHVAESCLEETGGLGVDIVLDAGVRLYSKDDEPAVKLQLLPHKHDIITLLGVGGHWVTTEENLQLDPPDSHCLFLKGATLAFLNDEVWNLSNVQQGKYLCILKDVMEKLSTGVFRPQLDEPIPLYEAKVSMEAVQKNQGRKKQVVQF
UniProt Q17RY0: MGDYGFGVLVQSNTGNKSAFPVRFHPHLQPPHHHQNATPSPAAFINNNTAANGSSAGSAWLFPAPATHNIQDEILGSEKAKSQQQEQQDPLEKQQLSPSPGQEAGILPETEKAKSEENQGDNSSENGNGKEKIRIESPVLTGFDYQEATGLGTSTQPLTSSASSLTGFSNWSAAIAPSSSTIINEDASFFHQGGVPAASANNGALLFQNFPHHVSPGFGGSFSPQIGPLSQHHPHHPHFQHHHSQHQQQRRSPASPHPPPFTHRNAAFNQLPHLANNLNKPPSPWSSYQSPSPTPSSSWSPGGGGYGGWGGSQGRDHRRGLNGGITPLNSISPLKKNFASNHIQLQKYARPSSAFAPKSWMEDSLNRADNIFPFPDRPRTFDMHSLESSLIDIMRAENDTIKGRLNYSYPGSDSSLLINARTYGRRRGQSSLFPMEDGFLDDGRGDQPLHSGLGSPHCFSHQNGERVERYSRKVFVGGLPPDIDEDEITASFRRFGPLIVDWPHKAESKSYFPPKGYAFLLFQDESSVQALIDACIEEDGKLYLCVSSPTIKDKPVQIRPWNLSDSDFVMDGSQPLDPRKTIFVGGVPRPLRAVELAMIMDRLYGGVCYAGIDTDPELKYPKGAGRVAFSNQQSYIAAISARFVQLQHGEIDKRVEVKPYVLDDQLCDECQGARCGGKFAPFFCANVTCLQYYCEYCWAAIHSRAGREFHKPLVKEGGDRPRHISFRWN
UniProt Q9Y6M4: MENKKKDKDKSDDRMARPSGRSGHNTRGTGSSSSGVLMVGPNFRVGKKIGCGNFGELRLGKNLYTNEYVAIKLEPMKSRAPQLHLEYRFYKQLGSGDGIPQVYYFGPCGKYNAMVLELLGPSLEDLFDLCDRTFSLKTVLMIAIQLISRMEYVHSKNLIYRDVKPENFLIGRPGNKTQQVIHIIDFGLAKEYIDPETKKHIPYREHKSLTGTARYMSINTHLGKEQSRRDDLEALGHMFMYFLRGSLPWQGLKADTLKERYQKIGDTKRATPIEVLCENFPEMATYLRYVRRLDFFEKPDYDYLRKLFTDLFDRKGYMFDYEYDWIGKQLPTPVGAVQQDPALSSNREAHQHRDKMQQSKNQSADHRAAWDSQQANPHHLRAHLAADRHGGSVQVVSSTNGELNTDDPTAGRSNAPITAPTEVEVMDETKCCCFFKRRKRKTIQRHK
UniProt P09669, whole entry, looked up: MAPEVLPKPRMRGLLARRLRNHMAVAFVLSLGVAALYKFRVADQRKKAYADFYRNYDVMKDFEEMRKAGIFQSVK
UniProt Q9NX08, whole entry, looked up: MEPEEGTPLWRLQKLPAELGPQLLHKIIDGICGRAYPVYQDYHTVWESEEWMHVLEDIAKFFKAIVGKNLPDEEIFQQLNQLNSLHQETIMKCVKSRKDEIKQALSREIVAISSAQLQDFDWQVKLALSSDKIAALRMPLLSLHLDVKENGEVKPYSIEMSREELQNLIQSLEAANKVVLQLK
UniProt Q9P021, whole entry, looked up: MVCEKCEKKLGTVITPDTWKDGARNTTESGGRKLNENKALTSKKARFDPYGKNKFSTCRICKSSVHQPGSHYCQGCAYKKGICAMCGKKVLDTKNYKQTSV
UniProt Q9UBI1, whole entry, looked up: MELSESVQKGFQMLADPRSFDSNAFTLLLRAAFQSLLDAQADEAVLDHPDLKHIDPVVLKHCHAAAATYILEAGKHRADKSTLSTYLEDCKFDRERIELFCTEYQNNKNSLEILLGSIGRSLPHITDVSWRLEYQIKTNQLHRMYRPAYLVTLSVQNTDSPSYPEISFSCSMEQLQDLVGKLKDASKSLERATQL
UniProt Q92905, whole entry, looked up: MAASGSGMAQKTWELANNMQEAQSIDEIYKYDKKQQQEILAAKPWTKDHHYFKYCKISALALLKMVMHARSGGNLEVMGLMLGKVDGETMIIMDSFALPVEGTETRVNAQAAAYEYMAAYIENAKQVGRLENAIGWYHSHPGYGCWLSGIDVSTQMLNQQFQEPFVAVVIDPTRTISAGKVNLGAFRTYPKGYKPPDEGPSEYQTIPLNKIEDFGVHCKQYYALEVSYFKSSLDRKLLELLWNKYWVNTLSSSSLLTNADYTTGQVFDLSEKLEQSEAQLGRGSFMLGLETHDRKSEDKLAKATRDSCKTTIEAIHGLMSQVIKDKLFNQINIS
UniProt Q9BR76, whole entry, looked up: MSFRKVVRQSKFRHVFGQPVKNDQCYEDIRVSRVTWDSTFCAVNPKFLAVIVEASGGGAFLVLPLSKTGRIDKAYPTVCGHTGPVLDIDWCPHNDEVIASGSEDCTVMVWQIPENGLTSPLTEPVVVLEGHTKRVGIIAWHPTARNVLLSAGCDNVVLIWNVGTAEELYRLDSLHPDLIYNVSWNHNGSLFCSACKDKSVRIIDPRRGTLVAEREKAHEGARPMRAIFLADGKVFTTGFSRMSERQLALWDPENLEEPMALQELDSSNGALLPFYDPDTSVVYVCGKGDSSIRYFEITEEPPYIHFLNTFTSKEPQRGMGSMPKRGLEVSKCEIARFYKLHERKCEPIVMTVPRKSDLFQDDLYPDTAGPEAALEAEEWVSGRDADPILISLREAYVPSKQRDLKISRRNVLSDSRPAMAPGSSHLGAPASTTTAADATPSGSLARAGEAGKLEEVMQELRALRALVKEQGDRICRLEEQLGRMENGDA
UniProt Q08257: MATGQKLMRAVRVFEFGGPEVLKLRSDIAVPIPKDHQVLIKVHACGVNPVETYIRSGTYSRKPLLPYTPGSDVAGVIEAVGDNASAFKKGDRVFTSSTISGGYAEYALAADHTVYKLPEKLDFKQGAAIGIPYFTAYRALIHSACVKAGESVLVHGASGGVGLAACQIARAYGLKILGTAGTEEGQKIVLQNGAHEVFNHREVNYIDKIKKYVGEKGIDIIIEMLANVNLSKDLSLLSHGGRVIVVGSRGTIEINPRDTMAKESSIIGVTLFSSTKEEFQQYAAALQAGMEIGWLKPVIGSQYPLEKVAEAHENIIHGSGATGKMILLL
UniProt P53618: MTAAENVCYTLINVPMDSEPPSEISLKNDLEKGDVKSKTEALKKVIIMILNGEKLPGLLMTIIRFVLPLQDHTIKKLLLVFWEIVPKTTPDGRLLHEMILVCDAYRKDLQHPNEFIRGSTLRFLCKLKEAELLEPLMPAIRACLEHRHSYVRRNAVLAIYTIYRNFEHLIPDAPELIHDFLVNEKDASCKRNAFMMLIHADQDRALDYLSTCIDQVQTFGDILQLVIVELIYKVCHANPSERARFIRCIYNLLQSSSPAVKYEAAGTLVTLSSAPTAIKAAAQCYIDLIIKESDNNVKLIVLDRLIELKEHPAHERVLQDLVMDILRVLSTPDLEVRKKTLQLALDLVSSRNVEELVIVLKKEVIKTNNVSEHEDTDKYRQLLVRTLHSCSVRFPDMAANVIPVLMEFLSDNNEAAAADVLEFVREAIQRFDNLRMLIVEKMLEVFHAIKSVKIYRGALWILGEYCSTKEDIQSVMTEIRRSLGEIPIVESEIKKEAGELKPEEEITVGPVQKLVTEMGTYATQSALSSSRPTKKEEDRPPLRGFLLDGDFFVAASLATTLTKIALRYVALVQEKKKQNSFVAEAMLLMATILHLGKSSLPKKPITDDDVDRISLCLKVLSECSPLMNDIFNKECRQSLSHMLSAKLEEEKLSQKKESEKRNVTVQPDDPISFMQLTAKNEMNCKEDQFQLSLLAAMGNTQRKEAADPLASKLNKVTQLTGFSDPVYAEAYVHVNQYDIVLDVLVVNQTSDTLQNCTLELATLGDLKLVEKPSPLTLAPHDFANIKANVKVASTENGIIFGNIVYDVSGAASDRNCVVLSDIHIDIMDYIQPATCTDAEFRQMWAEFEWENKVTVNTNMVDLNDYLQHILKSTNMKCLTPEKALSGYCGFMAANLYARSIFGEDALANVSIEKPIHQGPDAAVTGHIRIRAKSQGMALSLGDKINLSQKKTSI
UniProt P31327: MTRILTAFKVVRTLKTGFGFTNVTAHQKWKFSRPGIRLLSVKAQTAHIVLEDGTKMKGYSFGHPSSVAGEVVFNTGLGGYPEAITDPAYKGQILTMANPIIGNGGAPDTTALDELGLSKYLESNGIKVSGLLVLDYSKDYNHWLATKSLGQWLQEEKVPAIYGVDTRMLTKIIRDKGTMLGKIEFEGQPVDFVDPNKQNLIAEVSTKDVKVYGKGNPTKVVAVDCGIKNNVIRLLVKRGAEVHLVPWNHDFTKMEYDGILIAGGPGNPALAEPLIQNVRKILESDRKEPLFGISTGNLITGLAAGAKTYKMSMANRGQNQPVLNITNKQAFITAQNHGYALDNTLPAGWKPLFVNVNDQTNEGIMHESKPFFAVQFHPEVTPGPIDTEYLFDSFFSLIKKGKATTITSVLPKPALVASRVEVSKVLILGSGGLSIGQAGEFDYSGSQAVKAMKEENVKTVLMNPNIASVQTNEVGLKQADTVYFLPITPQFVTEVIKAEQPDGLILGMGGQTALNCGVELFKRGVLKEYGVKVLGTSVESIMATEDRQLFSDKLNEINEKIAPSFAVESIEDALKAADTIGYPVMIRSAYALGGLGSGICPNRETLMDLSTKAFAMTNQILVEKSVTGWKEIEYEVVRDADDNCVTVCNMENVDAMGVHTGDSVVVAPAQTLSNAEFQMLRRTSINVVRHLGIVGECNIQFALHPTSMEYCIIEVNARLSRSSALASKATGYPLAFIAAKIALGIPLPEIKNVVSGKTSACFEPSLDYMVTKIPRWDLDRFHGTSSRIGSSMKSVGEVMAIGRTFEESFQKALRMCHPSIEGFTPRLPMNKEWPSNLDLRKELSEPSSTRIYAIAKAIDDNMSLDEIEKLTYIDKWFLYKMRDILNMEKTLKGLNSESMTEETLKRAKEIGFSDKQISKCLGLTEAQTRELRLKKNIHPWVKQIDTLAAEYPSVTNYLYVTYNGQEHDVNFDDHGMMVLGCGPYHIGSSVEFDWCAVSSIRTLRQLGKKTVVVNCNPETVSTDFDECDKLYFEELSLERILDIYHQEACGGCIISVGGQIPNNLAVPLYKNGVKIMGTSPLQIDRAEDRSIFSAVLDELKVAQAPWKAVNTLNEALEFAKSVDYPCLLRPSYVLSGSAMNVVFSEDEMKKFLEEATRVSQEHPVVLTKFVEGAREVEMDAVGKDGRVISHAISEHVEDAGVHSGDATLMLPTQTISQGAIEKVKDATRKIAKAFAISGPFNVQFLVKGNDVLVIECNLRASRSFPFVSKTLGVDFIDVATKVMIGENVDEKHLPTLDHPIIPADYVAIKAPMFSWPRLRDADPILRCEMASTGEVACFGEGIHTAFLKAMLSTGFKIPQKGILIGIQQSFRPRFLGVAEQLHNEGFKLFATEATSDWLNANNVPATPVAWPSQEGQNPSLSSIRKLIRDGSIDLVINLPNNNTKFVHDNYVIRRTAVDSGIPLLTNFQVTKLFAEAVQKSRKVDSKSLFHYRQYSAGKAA

compound: c1cn2cc(-c3ccc4cn[nH]c4c3)nc(Nc3ccc(N4CCOCC4)cc3)c2n1 [entospletinib]; assay: log2 fold change, soluble protein after heating vs DMSO (PISA); higher = thermal stabilisation; K562 cells, 10 uM, 30 min; active = over 0.2 and 3.5 SD of the protein, either way, in both replicates (recomputed)
Procedure, shortened: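 K562 cells at 2×10^6 cells/mL were treated for 30 min with 10 μM compound, and aliquots were heated for 3 min over 48°C-58°C before pooling. Extraction used PBS with 0.5% NP-40 at 4°C, and soluble protein was the supernatant after 21,000xg for 90 min, measured by TMTpro 16plex LC-MS/MS with channel sums equalised. Thermal stability values, relative to control samples and from duplicates, are log2 fold changes.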

log2 fold change, inactive:
COX4I1 (UniProt P13073) 0.003
COPG2 (UniProt Q9UBF2) -0.041
COMMD5 (UniProt Q9GZQ3) -0.052
COPE (UniProt O14579) 0.014
CREG1 (UniProt O75629) 0.07
CRYZL1 (UniProt O95825) -0.002
CPEB4 (UniProt Q17RY0) -0.04
CSNK1G3 (UniProt Q9Y6M4) 0.099
COX6C (UniProt P09669) 0.035
CPNE7 (UniProt Q9UBL6) -0.144
CROCC (UniProt Q5TZA2) -0.005
COMMD8 (UniProt Q9NX08) 0.042
CRIPT (UniProt Q9P021) 0.147
COMMD3 (UniProt Q9UBI1) 0.049
CREB1 (UniProt P16220) 0.017
COMTD1 (UniProt Q86VU5) 0.045
COL6A1 (UniProt P12109) 0.197
COPS5 (UniProt Q92905) -0.042
CRTAP (UniProt O75718) 0.04
CORO1B (UniProt Q9BR76) -0.005
CRYZ (UniProt Q08257) 0.011
COTL1 (UniProt Q14019) -0.013
CPOX (UniProt P36551) 0.045
COPB1 (UniProt P53618) -0.019
COPG1 (UniProt Q9Y678) -0.01
CPS1 isoform 3 (UniProt P31327) 0.115
COLGALT2 (UniProt Q8IYK4) 0.016
CPA4 (UniProt Q9UI42) -0.058
